PubChem BioAssay AID1259308 | NCATS | 2017
In all, the deposit lists about 59,000 reagents; shown is a random part of them. In the full data, about 1,510 (2.6%) got an active call. 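Calls use total luciferase alone and ignore viability, so some active siRNAs may act by altering cell number.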 Entries without a mark were called inactive. The numbers tell different reagents against one gene apart.

Aim: 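Knock-downs that increase output of a recombinant reporter protein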 (primary screen)
System: human HEK293 embryonic kidney cells stably expressing firefly luciferase (HEK-CMV-Luc2-Hygro)
Knock-down reagent: single siRNA against human genes, 0.8 pmol siRNA per well
Time to read-out: 72 h
Measured: 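Luciferase light (ONE-Glo) measured on one replicate plate set and viability (CellTiter-Glo) on the other, scaled to a negative control siRNA, with robust z-scores and luciferase per cell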
Scale: total luciferase, z-score and total luciferase, % of control: higher = more reporter protein produced; luciferase per cell, z-score: higher = more reporter output per viable cell; viable cells, % of control: higher = more viable cells
Rule for the call: 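An siRNA counts as active if its total luciferase robust z-score exceeds 3; genes with two or more such siRNAs out of three were retested with fresh siRNAs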
Meaning of the calls: active = raised luciferase; inactive = no rise

Target gene,reagent no.,"total luciferase, z-score","total luciferase, % of control","luciferase per cell, z-score","viable cells, % of control"
VAX1,1,0.884,99.5,1.06,84.1
VAX1,2,1.62,114,1.59,83.7
VAX1,3,-0.0194,81.5,-0.498,104
DHRS7B,1,-0.418,73.6,-0.491,93.6
DHRS7B,2,0.153,84.9,-0.165,99.1
DHRS7B,3,-0.467,72.6,-0.091,83.1
ENTPD4,1,-0.992,62.2,-0.554,80.4
ENTPD4,2,4.07 (active),163,2.57,92.6
ENTPD4,3,0.049,82.9,0.578,79.5
NDUFA6,1,-0.243,77,-0.761,105
NDUFA6,2,1.55,113,0.507,110
NDUFA6,3,-0.558,70.8,-0.479,89.7
TAFA1,1,0.442,90.7,0.517,88.4
TAFA1,2,0.153,84.9,0.26,88.6
TAFA1,3,0.134,84.6,-0.12,97.5

Targets listed so far whose target name starts with N or n (3):
Target gene,reagent no.,"total luciferase, z-score","total luciferase, % of control","luciferase per cell, z-score","viable cells, % of control"
NDUFA6,1,-0.243,77,-0.761,105
NDUFA6,2,1.55,113,0.507,110
NDUFA6,3,-0.558,70.8,-0.479,89.7

More reagents:
Target gene,reagent no.,"total luciferase, z-score","total luciferase, % of control","luciferase per cell, z-score","viable cells, % of control"
ZEB1,1,-0.0841,80.2,0.304,82.7
ZEB1,2,0.357,89,-0.358,109
ZEB1,3,0.538,92.6,0.572,89
LINC01091,1,-0.503,71.9,1,61.7
LINC01091,2,-1.99,42.3,-1.62,72.5
LINC01091,3,-0.814,65.7,-0.578,85.5
ENPP1,1,1.17,105,0.751,96.5
ENPP1,2,0.507,92,-0.331,112
ENPP1,3,-1.39,54.3,-1.44,88.6
ANKRD16,1,1.47,111,1.28,88.6
ANKRD16,2,0.709,96,0.435,95.6
ANKRD16,3,-1.28,56.5,-0.926,80.5
LINC01085,1,0.0562,83,0.591,79.4
LINC01085,2,-1.69,48.3,-1.51,80.3
LINC01085,3,0.412,90.1,0.0302,99.9
OR2A7,1,0.23,86.5,-0.19,102
OR2A7,2,1.86,119,1.92,80
OR2A7,3,1.78,117,2.12,75
SART3,1,1.63,114,1.64,82.8
SART3,2,-0.143,79,0.0277,87.7
SART3,3,0.719,96.2,0.714,89.1
FLOT2,1,-1.12,59.7,-0.617,78.5
FLOT2,2,0.714,96.1,0.631,90.9
FLOT2,3,0.375,89.3,0.0367,98.9
